Assay results: PubChem BioAssay AID2685 (National Center for Advancing Translational Sciences (NCATS), 2010)
Some of the results follow. The main result of the screen is listed elsewhere. These columns were measured beside it and carry no call. Compounds called inactive in the main read-out are mostly missing here. The note in brackets gives the kind of curve behind each potency; many fits are weak.

Assay: qHTS Assay for Lipid Storage Modulators in Drosophila S3 Cells;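 for cell number change: cells counted by Cell Tracker Red CMTPX staining in the red channel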
Conditions: BODIPY lipid droplet fluorescence, 18-24 h; for cell number change: measured here: cell count max response, cells fed with added oleic acid
How it was run: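 Laser-scanning cytometry quantifies lipid droplet accumulation (500–530 nm total intensity; droplet/cell object ratio) in oleic acid-fed (400 uM added) Drosophila S3 cells treated with a concentration series. 20 uM Triacsin C defined 100% inhibition.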

[1] = measured here: cell number channel AC50, cells fed with added oleic acid
[2] = measured here: lipid fluorescence (Fed channel) AC50, cells fed with added oleic acid

SMILES | cell number change [%] | AC50 [1] | AC50 [2]
Cc1ccc(N=c2c([N+](=O)[O-])nn(-c3ccc4c(c3)OCCO4)n2O)cc1F | 49.7 | 0.366 µM [rising, full curve] | 
O=C(CNC(=O)c1ccccc1Cl)N/N=C/c1ccc([N+](=O)[O-])s1 | -21.2 |  | 20.6 µM [falling, single point]
COc1ccc(S(=O)(=O)NCC(=O)N(CC(=O)NCC2CCCO2)Cc2ccc(F)cc2)cc1 (configuration not stated) | 17.4 |  | 
O=C(O)CC/C(=N/NC(=O)CNC(=O)Cc1ccc(Cl)cc1)c1ccccc1 | 20.8 |  | 13 µM [rising, partial curve]
COc1ccc(/C(O)=C/C(=O)C(=O)NNC(=O)C(O)(c2ccccc2)c2ccccc2)cc1 | 21.4 |  | 0.231 µM [falling, full curve, poor fit]
Cc1ccc(S(=O)(=O)/N=C(\Sc2ccccc2)c2ccccc2)cc1 | -8.17 | 4.11 µM [rising, single point] | 6.51 µM [rising, partial curve]
Cc1cc(C(=O)N2CCc3ccccc32)c2cc(F)ccc2n1 | -16.5 |  | 0.326 µM [rising, full curve, poor fit]
N#CCCN(C(=S)NC(=O)c1ccco1)c1ccccc1F | -21 | 0.82 µM [falling, full curve, poor fit] | 0.058 µM [falling, full curve, poor fit]
COc1ccc(C(=O)N2CCN(c3ccc(NC(=O)Cc4ccccc4)cc3)CC2)cc1 | 10.4 | 0.13 µM [rising, partial curve, poor fit] | 18.4 µM [rising, single point]
CC(NC(=O)CSc1nc(C2CC2)n(-c2ccccc2)n1)c1ccco1 (configuration not stated) | -3.44 |  | 
Cn1c(N)c(C(=O)COC(=O)/C=C/c2cccc(Br)c2)c(=O)n(C)c1=O | 20.5 |  | 
CCOc1ccc(/C=C2\SC(=S)N(CC(=O)Nc3ccccn3)C2=O)cc1 | 1.18 |  | 20.6 µM [rising, partial curve]
CN(Cc1ccccc1F)C(=O)C1CCCN(C(=O)c2ccc(Cl)cc2)C1 (configuration not stated) | 18.1 |  | 
COc1cc(/C=N/NC(=O)CSc2cc(C)c(Br)cc2C)ccc1O |  |  | 10.3 µM [rising, partial curve]
CN1/C(=C\C(=O)c2cncc(Br)c2)C(C)(C)c2ccccc21 | -39.9 |  | 29.1 µM [falling, single point]
O=C(CN1CCN(c2ccccn2)CC1)Nc1ccc(F)cc1F | 15.3 |  | 32.6 µM [falling, single point]
O=C1CSC(=NC2CCCCC2)N1 | -15.6 |  | 0.92 µM [falling, full curve]
CCCOc1ccc(NC(=O)c2c(-c3ccccc3)noc2C)cc1 | 56 | 11.6 µM [rising, partial curve] | 0.58 µM [rising, partial curve]
CC(C)(C)c1ccc(CNc2ccc([N+](=O)[O-])cn2)cc1 | -28.5 |  | 32.6 µM [falling, single point]
O=C1CCCc2c1[nH]c1c(Br)cccc21 | -4.87 | 7.31 µM [rising, single point] | 

2 records picked at random from the list so far, as already listed:
SMILES | cell number change [%] | AC50 [1] | AC50 [2]
COc1ccc(S(=O)(=O)NCC(=O)N(CC(=O)NCC2CCCO2)Cc2ccc(F)cc2)cc1 (configuration not stated) | 17.4 |  | 
Cn1c(N)c(C(=O)COC(=O)/C=C/c2cccc(Br)c2)c(=O)n(C)c1=O | 20.5 |  | 

(cont.)

SMILES | cell number change [%] | AC50 [1] | AC50 [2]
NC(=O)C1CCCN(C(=O)c2cccc(S(=O)(=O)N3CCCCCC3)c2)C1 (configuration not stated) | -30.1 | 29.1 µM [falling, single point] | 0.13 µM [falling, full curve, poor fit]
Cc1cccc2c(N=Nc3ccc(S(=O)(=O)Nc4ccc(Cl)cc4)cc3[N+](=O)[O-])c(O)[nH]c12 | 17.2 |  | 1.03 µM [falling, single point]
Cc1ccc2cccc(NC(=S)NC(=O)c3ccn(C)n3)c2n1 | -63.8 | 16.4 µM [falling, single point] | 16.4 µM [falling, single point]
O=C1C=CN(Cc2ccccc2)CC1 | -32.9 | 32.6 µM [falling, single point] | 
Cc1nc2sccn2c1P(c1c(C)nc2sccn12)c1c(C)nc2sccn12 | -13.2 |  | 
Cc1noc(/C=C/c2ccco2)c1S(=O)(=O)N1CCC(C(=O)N(C)Cc2ccccc2)CC1 | -6.53 |  | 0.00517 µM [falling, full curve, poor fit]
Cc1cccc2cc(C3CC(c4ccco4)=NN3S(=O)(=O)c3ccccc3)c(Cl)nc12 (configuration not stated) | 25.5 |  | 
CCOc1ccc(S(=O)(=O)N2CCN(C(=O)Cc3ccc(S(=O)(=O)N4CCOCC4)s3)CC2)cc1 | -8.26 |  | 23.1 µM [falling, single point]
OCCN1CCN(CCOc2ccccc2-c2ccccc2)CC1 | -9.01 |  | 2.31 µM [rising, single point]
Cc1ccc(NC(NC(=O)OCCn2c([N+](=O)[O-])cnc2C)C(Cl)(Cl)Cl)cc1 (configuration not stated) |  |  | 0.0651 µM [rising, full curve, poor fit]
COc1ccc(Cl)cc1NC(=O)C/C(C)=N/NC(=O)CCc1ccccc1 | -9.52 |  | 6.51 µM [falling, single point]
O=[N+]([O-])c1ccc(/C=[N+](\[O-])CCO)o1 | 94.4 | 29.1 µM [rising, single point] | 14.6 µM [rising, partial curve]
Cc1c(C(=O)NCc2cccnc2)sc2nc(-c3ccc(F)cc3)cn12 | -114 |  | 
Cc1nc(Cc2nnc(SC(C)C(=O)N3c4ccccc4NC(=O)C3(C)C)o2)cs1 (configuration not stated) | 34.5 | 5.8 µM [rising, full curve, poor fit] | 0.00517 µM [falling, full curve, poor fit]
CCOc1ccc2ncc(C(=O)c3ccc(OC)cc3)c(N3CCN(CC)CC3)c2c1 | 13.6 |  | 
CNC(=O)C1CCC(=O)N1Cc1ccccc1Cl (configuration not stated) |  |  | 25.9 µM [falling, partial curve]
CCCn1c(N)c(C(=O)COC(=O)c2c(C)noc2C)c(=O)n(C)c1=O | -42.2 | 9.2 µM [falling, partial curve] | 2.91 µM [falling, single point]
COc1ccc(N(C)S(=O)(=O)c2cccc(C(=O)Nc3ccc(-n4cnnn4)cc3)c2)cc1 | 17.1 | 0.164 µM [falling, full curve, poor fit] | 
Cc1cccc(NC(=O)COC(=O)c2ccc3c(c2)OCO3)c1C |  | 0.259 µM [rising, full curve] | 
NC(=O)CSc1nnc(-c2cc(-c3cccs3)nc3ccccc23)o1 |  |  | 29.1 µM [rising, single point]

SMILES | cell number change [%] | AC50 [1] | AC50 [2]
O=C1CC(Sc2nnc(-c3ccccc3O)o2)C(=O)N1c1ccccc1 (configuration not stated) | -37.6 | 23.1 µM [falling, single point] | 25.9 µM [falling, single point]
C#CCn1c(O)c(N=NC(=O)C(O)c2ccccc2)c2ccccc21 (configuration not stated) | 35.5 |  | 0.231 µM [rising, full curve, poor fit]
CCCCC1CCC(C(=O)NCc2ccc3c(c2)OCO3)CC1 (configuration not stated) | -33.2 | 0.651 µM [falling, full curve] | 
CN(C)/C=N/c1ncn(-c2ncc(C(F)(F)F)cc2Cl)n1 | -3.76 |  | 
COc1ccc(C(=O)OCC(=O)Nc2ccc3c(c2)OCCO3)c(OC)c1 | -0.519 |  | 
c1ccc(C2=Nc3ccccc3OC2)cc1 | -4.96 |  | 
CCCCOC(=O)Nc1cc(OC)c(Cl)cc1OC | -34.2 | 25.9 µM [falling, single point] | 
Cc1ccccc1OCC(=O)Nc1ccc2c(c1)COC2=O | 39.8 | 9.2 µM [rising, partial curve] | 3.66 µM [rising, single point]
CCOC(=O)c1c(-c2cccs2)csc1NC(=O)CN1CCOCC1 |  | 2.59 µM [rising, partial curve] | 5.8 µM [rising, single point]
COc1ccccc1C(CCNCc1ccc(N(C)C)cc1)c1ccc(OC(C)C)cc1 (configuration not stated) | -61.9 | 13 µM [falling, partial curve] | 18.4 µM [falling, partial curve]
Cn1c(=O)c(C(=O)NC2CCCCCC2)c(O)c2ccccc21 | 12.2 |  | 29.1 µM [falling, single point]
Cc1cc(Cl)ccc1NC(=O)CCC(=O)O | 106 | 4.11 µM [rising, full curve] | 29.1 µM [rising, single point]
COCc1cc(C)nc(NC2CCCCC2)c1C#N | -26.1 |  | 16.4 µM [falling, single point]
Cc1ccc(C(=O)COc2ccc3ccc(=O)oc3c2)cc1 | 7.62 |  | 6.51 µM [falling, single point]
COc1ccc(-c2cc(C(=O)NCCCN3CCCC3=O)c3ccccc3n2)cc1OC |  |  | 0.103 µM [falling, full curve, poor fit]
Cc1ccc(C(=O)Nc2nncs2)cc1S(=O)(=O)N1CCOCC1 | -25.8 | 0.291 µM [falling, full curve, poor fit] | 29.1 µM [falling, single point]
COc1cccc(CC(=O)Nc2nc(-c3cccnc3)cs2)c1 | 16.9 |  | 0.116 µM [rising, full curve, poor fit]
COCCSc1ccccc1C(=O)N1CCc2ccccc2C1 | 6.46 |  | 
COC(=O)c1ccc(=O)n(Cc2ccco2)c1 | -5.15 | 0.13 µM [rising, full curve, poor fit] | 0.0291 µM [rising, full curve, poor fit]
CCCNC(=O)CCn1c(-c2ccc(C)cc2)cc(C(=O)OCC)c1C | 46.7 | 18.4 µM [rising, single point] | 
